What all share (assay): split reporter; BiFC with pYFN43 and pYFC43 fusions co-infiltrated (with p19) into N. benthamiana abaxial leaf cells by A. tumefaciens; confocal microscopy three days after infiltration
In experiment [1] the target is T1, Arabidopsis thaliana dehydrin AtRAB18 (Arabidopsis thaliana) (UniProt P30185).
T1 sequence: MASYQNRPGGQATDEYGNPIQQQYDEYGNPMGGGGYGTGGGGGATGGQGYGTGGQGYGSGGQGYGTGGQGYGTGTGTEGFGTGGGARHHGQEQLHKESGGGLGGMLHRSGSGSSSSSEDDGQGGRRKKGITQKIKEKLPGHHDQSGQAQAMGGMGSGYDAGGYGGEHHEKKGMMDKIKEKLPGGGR

The target in experiment [2] is T2, Arabidopsis thaliana dehydrin AtERD10 (Arabidopsis thaliana) (UniProt P42759).
T2 sequence: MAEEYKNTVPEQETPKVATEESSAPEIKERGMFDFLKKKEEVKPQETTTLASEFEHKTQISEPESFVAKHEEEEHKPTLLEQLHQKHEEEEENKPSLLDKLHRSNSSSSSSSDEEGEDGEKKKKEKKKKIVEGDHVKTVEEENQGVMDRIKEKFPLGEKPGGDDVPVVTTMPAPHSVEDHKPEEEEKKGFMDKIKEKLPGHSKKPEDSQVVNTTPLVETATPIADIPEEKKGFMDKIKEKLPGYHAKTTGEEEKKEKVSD

The target of experiment [3] is T3, Arabidopsis thaliana dehydrin AtCOR47 (Arabidopsis thaliana) (UniProt P31168).
T3 sequence: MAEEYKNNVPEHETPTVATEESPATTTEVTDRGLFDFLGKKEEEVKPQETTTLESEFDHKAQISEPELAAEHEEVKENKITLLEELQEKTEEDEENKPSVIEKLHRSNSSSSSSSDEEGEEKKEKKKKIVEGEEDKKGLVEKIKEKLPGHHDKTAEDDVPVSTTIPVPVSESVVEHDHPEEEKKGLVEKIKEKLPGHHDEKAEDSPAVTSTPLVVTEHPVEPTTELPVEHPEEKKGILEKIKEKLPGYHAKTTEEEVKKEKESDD

The target of experiment [4] is OpsDHN1ΔHis version (Opuntia streptacantha).
Experiment [5] deals with OpsDHN1 dehydrin from Opuntia streptacantha (Opuntia streptacantha).

These are yes or no findings as the source states them, for the method shown. Binding seen in cells or lysates may run through a third protein. A result given as binding can be weak or reduced; the word gives no strength.

For “OpsDHN1 dehydrin from Opuntia streptacantha”, the binding entry in experiment [1], in experiment [2] and in experiment [3] was “binds” throughout.

For the molecule “OpsDHN1ΔHis version (Opuntia streptacantha)”, the binding entry in experiment [1], in experiment [2] and in experiment [3] was “binds” each time.

B1: Arabidopsis thaliana dehydrin AtRAB18 (protein, UniProt P30185 1-186)
chain: MASYQNRPGGQATDEYGNPIQQQYDEYGNPMGGGGYGTGGGGGATGGQGYGTGGQGYGSGGQGYGTGGQGYGTGTGTEGFGTGGGARHHGQEQLHKESGGGLGGMLHRSGSGSSSSSEDDGQGGRRKKGITQKIKEKLPGHHDQSGQAQAMGGMGSGYDAGGYGGEHHEKKGMMDKIKEKLPGGGR
Consider B1, for which the binding result in experiment [4] and in experiment [5] was “binds” in each case.

B2: Arabidopsis thaliana dehydrin AtCOR47 (protein, UniProt P31168 1-265)
chain: MAEEYKNNVPEHETPTVATEESPATTTEVTDRGLFDFLGKKEEEVKPQETTTLESEFDHKAQISEPELAAEHEEVKENKITLLEELQEKTEEDEENKPSVIEKLHRSNSSSSSSSDEEGEEKKEKKKKIVEGEEDKKGLVEKIKEKLPGHHDKTAEDDVPVSTTIPVPVSESVVEHDHPEEEKKGLVEKIKEKLPGHHDEKAEDSPAVTSTPLVVTEHPVEPTTELPVEHPEEKKGILEKIKEKLPGYHAKTTEEEVKKEKESDD
On to B2, for which the binding entry in experiment [4] and in experiment [5] was “binds” throughout.

B3: Arabidopsis thaliana dehydrin AtERD10 (protein, UniProt P42759 1-260)
chain: MAEEYKNTVPEQETPKVATEESSAPEIKERGMFDFLKKKEEVKPQETTTLASEFEHKTQISEPESFVAKHEEEEHKPTLLEQLHQKHEEEEENKPSLLDKLHRSNSSSSSSSDEEGEDGEKKKKEKKKKIVEGDHVKTVEEENQGVMDRIKEKFPLGEKPGGDDVPVVTTMPAPHSVEDHKPEEEEKKGFMDKIKEKLPGHSKKPEDSQVVNTTPLVETATPIADIPEEKKGFMDKIKEKLPGYHAKTTGEEEKKEKVSD
In the case of B3, the binding entry in experiment [4] and in experiment [5] was “binds” each time.

(Values after article PMC5719087.)
